At least one structure is not confirmed: it was looked up by name or label, or the drawing left a doubt.
How the values were obtained:
CD4+ T cells = test: CD4+ T cell proliferation in vitro (CTV dilution); format: cell-based, mouse; details: 100 nM, activated 3 days
EAE in B6 mice = test: MOG35-55-induced experimental autoimmune encephalomyelitis (EAE); format: in vivo, mouse; details: 3 mg/kg every other day day 0-12
[1] = system: alloantigen-specific CD4+ T cells (TEa cells); test: TEa cell transfer model, WT TEa cells in heart-transplanted CD45.1+ mice; format: in vivo, mouse; details: 3 mg/kg on day 0, 2, 4, and 6; splenocytes day 7 post-transplant
naïve CD4+ T cells = test: Polarization of CD4+ T cells in vitro (Th1, Th17, iTreg); format: cell-based, mouse; details: 100 nM, 3 days
[2] = system: PD-1 and Helios expression in activated CD4+ T cells; test: PD-1 and Helios expression in in vitro activated CD4+ T cells; format: cell-based, mouse

CC(=O)Nc1cccc(-n2c(=O)n(C3CC3)c(=O)c3c(Nc4ccc(I)cc4F)n(C)c(=O)c(C)c32)c1 [trametinib]
CD4+ T cell proliferation (CD4+ T cells): sufficient to inhibit CD4+ T cell proliferation
expression of GM-CSF, IFN-γ, IL-17, and Foxp3 by brain infiltrating CD4+ T cells (EAE in B6 mice; 18-20 days post induction): significantly decreased
CD4+ T cell infiltration in the brain (EAE in B6 mice; 18-20 days post induction, vs corn oil): dramatically decreased
frequency of IL-17+CD4+ T cells in the periphery (EAE in B6 mice; draining lymph nodes and spleens): lower
PD-1 and Helios expression on TEa cells in transplanted mice [1]: promoted PD-1 and Helios expression
Th1 cell differentiation (naïve CD4+ T cells; Th1 polarizing conditions): inhibit
Th17 cell differentiation (naïve CD4+ T cells; Th17 polarizing conditions): inhibit
differentiation of inducible Treg cells (naïve CD4+ T cells; iTreg polarizing conditions): promoted the differentiation of inducible Treg cells
PD-1 and Helios expression in activated Irf4-deficient CD4+ T cells ([2]; Irf4fl/flCd4-Cre CD4+ T cells activated 2 days): barely affected their expression
PD-1 expression on WT CD4+ T cells ([2]; WT CD4+ T cells activated 2 days): increased PD-1 expression
Helios expression by WT CD4+ T cells ([2]; WT CD4+ T cells activated 2 days, vs DMSO): majority of the trametinib-treated WT CD4+ T cells expressed Helios

From patent US20210380683A1, “MODULATION OF IRF-4 AND USES THEREOF” (THE METHODIST HOSPITAL SYSTEM, priority 2018, published 2021)
